In paper doi:10.1101/2024.01.15.575713:
Like-named read-outs stand apart in the source and are kept apart here. Results are given in words; binding and its absence hold for the method and conditions named. In cells and extracts the contact can be indirect. Some results given as binding are weak or reduced against the parent protein; the word gives no strength.

By UniProt entry, the sequences of proteins in these tests, tags left out. Where a name states a change or a piece, a line headed by the entry shows the natural chain unless it says otherwise.
UniProt Q92547, whole entry: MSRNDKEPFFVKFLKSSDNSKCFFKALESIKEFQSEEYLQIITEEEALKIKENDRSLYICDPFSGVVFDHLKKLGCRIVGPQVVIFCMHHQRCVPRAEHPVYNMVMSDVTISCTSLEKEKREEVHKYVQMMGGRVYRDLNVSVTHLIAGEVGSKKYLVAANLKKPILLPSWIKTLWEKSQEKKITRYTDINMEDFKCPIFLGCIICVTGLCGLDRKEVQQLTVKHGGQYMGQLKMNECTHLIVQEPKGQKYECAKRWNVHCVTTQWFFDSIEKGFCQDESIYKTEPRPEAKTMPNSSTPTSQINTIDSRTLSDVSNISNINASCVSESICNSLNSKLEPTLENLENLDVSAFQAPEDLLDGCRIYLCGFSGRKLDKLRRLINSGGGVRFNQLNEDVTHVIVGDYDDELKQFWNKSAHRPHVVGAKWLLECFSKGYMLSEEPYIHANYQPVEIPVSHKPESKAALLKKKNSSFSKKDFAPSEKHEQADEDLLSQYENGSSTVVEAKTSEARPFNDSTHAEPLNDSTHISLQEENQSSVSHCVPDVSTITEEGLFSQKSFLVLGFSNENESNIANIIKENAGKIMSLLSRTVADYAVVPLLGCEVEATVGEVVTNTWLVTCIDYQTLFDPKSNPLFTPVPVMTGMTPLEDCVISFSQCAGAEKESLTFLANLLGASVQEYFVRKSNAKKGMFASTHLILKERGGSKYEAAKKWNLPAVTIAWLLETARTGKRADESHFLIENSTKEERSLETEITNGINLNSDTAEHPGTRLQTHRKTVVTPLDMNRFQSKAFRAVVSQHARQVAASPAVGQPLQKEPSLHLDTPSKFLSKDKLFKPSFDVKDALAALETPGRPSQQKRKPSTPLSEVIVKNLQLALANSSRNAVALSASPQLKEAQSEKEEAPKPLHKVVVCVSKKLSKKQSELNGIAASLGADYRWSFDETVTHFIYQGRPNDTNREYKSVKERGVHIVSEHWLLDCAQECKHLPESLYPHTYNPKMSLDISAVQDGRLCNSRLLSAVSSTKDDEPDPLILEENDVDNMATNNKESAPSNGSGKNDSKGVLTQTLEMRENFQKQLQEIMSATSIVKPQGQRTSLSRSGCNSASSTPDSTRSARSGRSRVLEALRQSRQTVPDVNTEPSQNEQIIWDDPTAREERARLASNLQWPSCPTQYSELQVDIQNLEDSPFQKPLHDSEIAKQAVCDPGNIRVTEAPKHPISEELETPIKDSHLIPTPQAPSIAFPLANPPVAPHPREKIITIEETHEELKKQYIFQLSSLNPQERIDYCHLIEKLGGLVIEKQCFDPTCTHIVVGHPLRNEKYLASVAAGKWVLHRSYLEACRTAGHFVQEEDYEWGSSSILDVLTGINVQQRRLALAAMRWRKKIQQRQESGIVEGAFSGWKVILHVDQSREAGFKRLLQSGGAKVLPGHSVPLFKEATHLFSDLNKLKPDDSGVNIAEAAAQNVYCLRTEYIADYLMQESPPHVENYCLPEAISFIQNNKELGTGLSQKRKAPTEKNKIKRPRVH
UniProt P11387, whole entry: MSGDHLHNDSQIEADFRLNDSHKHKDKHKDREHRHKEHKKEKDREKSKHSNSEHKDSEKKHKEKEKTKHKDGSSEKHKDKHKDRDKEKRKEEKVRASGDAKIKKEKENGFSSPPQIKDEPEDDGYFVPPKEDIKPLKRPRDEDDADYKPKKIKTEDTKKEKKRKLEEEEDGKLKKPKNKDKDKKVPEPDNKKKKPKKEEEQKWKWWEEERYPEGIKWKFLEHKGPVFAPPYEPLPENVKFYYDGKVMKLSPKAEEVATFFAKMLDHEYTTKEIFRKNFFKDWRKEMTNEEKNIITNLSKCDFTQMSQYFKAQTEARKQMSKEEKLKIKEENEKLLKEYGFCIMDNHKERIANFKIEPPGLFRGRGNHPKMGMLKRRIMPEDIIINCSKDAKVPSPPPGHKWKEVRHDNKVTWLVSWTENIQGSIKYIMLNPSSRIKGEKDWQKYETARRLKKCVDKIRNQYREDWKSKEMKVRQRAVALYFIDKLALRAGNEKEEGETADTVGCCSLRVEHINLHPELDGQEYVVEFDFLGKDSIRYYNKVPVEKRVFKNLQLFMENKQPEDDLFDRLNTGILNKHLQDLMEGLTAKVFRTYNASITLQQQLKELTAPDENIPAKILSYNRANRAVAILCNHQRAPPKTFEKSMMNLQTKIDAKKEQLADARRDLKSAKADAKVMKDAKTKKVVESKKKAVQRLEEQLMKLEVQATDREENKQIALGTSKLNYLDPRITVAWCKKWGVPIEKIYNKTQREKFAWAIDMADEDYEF
UniProt Q96EB6, whole entry: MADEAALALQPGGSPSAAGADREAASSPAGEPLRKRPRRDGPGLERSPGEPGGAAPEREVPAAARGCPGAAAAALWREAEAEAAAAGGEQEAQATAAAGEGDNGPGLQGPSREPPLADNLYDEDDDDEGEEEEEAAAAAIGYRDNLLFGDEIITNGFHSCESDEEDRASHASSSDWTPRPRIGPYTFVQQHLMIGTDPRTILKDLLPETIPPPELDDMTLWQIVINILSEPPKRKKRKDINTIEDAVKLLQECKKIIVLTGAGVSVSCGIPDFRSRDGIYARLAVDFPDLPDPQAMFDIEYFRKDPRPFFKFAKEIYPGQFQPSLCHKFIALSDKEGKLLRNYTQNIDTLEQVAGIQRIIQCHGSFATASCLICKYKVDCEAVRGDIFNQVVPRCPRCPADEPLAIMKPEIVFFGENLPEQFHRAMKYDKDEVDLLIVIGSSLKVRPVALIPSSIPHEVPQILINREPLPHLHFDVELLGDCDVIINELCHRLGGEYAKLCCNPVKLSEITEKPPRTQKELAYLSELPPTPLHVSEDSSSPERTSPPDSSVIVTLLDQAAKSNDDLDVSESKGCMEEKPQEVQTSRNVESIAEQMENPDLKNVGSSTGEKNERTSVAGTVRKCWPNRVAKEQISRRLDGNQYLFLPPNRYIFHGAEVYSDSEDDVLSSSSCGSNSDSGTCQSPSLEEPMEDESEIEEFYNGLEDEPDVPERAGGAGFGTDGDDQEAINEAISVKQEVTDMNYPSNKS

Tests used:
Test in all cases: co-IP
[1] = target: TopBP1 (human (endogenous in N/Tert-1 and HFK cells)) (UniProt Q92547)
[2] = target: Topoisomerase 1 (Top1) (human (endogenous in N/Tert-1)) (UniProt P11387)
[3] = target: SIRT1 (human (endogenous in N/Tert-1, HFK and U2OS cells)) (UniProt Q96EB6)
[4] = target: SIRT1 (human (endogenous in N/Tert-1, HFK and U2OS cells)) (UniProt Q96EB6); remark: listed apart in the source

Substance	binding [1]	binding [2]	binding [3]	binding [4]
E2-K111R (E2 with lysine 111 mutated to arginine) (from UniProt P03120 1-365)	binds	no binding	–	–
HPV16 E2 expressed from the HPV16 genome in HFK+HPV16 cells (from UniProt P03120 1-365)	–	–	binds	–
E2-S23A (E2 with serine 23 mutated to alanine) (from UniProt P03120 1-365)	–	–	binds	binds
HPV16 wild-type E2 (E2-WT) (from UniProt P03120 1-365)	–	binds	binds	binds
E2-K111R + K112R (E2 with lysine 111 and lysine K112 mutated to arginine) (from UniProt P03120 1-365)	binds	no binding	–	–
E2-K111Q (E2 with lysine 111 mutated to glutamine) (from UniProt P03120 1-365)	binds	–	–	–
E2-K112R (E2 with lysine 112 mutated to arginine) (from UniProt P03120 1-365)	binds	–	–	–
